At least one compound was matched to its structure with a doubt left.
Tested on: HCC159 lung adenocarcinoma cells
Assay: Tim4-IgG1 Fc staining for phosphatidylserine exposure after EGFR inhibitor treatment
Assay type: cell-based
Details: 12 hours, increasing concentrations 50 nM and higher
Source text: HCC159 lung adenocarcinoma cells harbor an EGFR mutation and are sensitive to EGFR inhibition.

SMILES: COc1cc(N2CCC(N3CCN(C)CC3)CC2)ccc1Nc1ncc(Cl)c(Nc2ccccc2P(C)(C)=O)n1 [Brigatinib]
- surface staining with Tim4-IgG1 Fc fusion protein (phosphatidylserine exposure): enhanced surface staining with Tim4-IgG1 Fc fusion protein

— patent US11708423B2, “Chimeric engulfment receptor molecules and methods of use” (CERO THERAPEUTICS, INC., priority 2017, dated 2023)
